## Assay results

From PubChem BioAssay record AID912 (NCATS, 2007).

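A cell-based FRET test of anthrax lethal toxin entry, tracked through the 460 nm emission signal; the cell line is not named here. Each compound was tested as a concentration series from about 0.0005 to 40 µM. The number is the fitted AC50 of the 460 nm signal alone; lower values mean a more potent effect. A falling signal goes with compounds filed as inhibitors or cytotoxic, a rising one with activators or fluorescent compounds (inferred from the filed classes).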

Values are in µM. Common to all entries: measured here: 460 nm channel. Part of the compounds only, not a random draw; the main read-out is not listed here. Potencies fitted to partial, single-point or poorly fitting curves are rough. The first word of each remark tells which way the curve ran; it can be opposite to the aim of the assay.

structure	AC50 (µM)	curve as filed
CCOC(=O)CSc1nnc(CNC(=O)c2ccc(S(=O)(=O)N3CCCC3)cc2)n1C	7.943	rising, partial curve, poor fit
COc1ccccc1CNc1ncnc2ccc(-c3ccc(C(=O)N(C)C)cc3)cc12	15.85	rising, partial curve
COCCn1c(=O)c(-c2ccc(Cl)cc2)nc2cncnc21	10	rising, partial curve
Cc1ccc2c(c1)c(C)c(C)n2CC(O)CN1CCCCC1C (stereo not drawn)	19.95	falling, single point
CCCC(C(=O)NCC1CCCO1)N(Cc1ccco1)C(=O)CNS(=O)(=O)c1ccc(F)cc1 (stereo not drawn)	1	rising, full curve
COc1ccc(CCNc2nc(N3CCCCC3)nc(N3CCCCC3)n2)cc1OC	7.943	falling, partial curve
O=C1c2sc3nc4ccccc4n3c2C(=O)N1c1ccccc1Cl	0.005012	falling, full curve, poor fit
COC(=O)[C@H]1[C@H]2C[C@@H]3c4[nH]c5cc(OC)ccc5c4CCN3C[C@H]2C[C@@H](OC(=O)c2cc(OC)c(OC)c(OC)c2)[C@@H]1OC	15.85	falling, partial curve, poor fit
Nc1ccc(S(=O)(=O)N2CCCc3ccccc32)cc1	0.02512	falling, full curve, poor fit
O=C(Nc1cccnc1)Nc1ccc(F)c(Cl)c1	12.59	falling, partial curve, poor fit
Cc1ccc(C)n1-n1c(C)nc2scc(-c3cccs3)c2c1=O	15.85	falling, partial curve
O=C1C=C(NCCc2cc(Br)c(O)c(Br)c2)C(=O)c2ncccc21	3.981	rising, partial curve
Cn1nnnc1CCOCCc1nnnn1C	2.512	falling, full curve
CN1CCN(c2ncc3nc(-c4cccc(C#N)c4)c(=O)n(CCc4ccccc4)c3n2)CC1	2.512	rising, full curve
Brc1ccccc1CN1CCC(N2CCCCC2)CC1	12.59	falling, single point
Cc1cc(C(F)(F)F)nc(SCc2ccc(C(=O)O)o2)n1	0.1259	rising, full curve, poor fit
Cc1cc2c(nn1)CCc1nonc1-2	0.003981	falling, full curve, poor fit
N#Cc1cccc(-c2nc3cnc(N4CCOCC4)nc3n(C3CC3)c2=O)c1	12.59	rising, partial curve
Nc1c(S(=O)(=O)c2cccc(Cl)c2)c2nc3ccccc3nc2n1CCN1CCOCC1	1.259	falling, partial curve
Cc1c(-c2ccc(O)cc2)nn(-c2ccc(O)cc2)c1-c1ccc(OCCN2CCCCC2)cc1	15.85	falling, partial curve
Cc1ccc(OCc2nc(-c3ccccc3)no2)c(C)c1	7.943	falling, partial curve
Cc1sc(NC(=O)CN2CCN(c3ccccn3)CC2)c(C#N)c1C	5.012	rising, single point
O=C1NC(c2ccco2)Nc2sc3c(c21)CCN(Cc1ccccc1)C3 (stereo not drawn)	10	rising, partial curve
COc1ccc(-n2c(=O)c(-c3cccs3)nc3cnc(OC)nc32)cc1	12.59	rising, partial curve
CC(C)[C@H](NC(=O)NCCc1ccc(F)cc1)C(=O)O	1.995	rising, single point
COc1cc(C(O)P(=O)(OC(C)C)c2ccc(N(C)C)cc2)cc(OC)c1OC (stereo not drawn)	0.5012	rising, full curve
CCOCCCn1c(=N)c(C(=O)NCc2ccc3c(c2)OCO3)cc2c(=O)n3ccccc3nc21	0.03162	rising, full curve, poor fit
COc1cc(C2c3c(oc4c(C)cc(C)cc4c3=O)C(=O)N2Cc2cccnc2)cc(OC)c1OC (stereo not drawn)	0.1259	falling, full curve, poor fit
CCNC(=O)c1c(O)c2ccccc2[nH]c1=O	3.162	rising, partial curve
Cc1nn(C)cc1CN(C)C(=O)c1sc2cccc(Cl)c2c1Cl	12.59	falling, single point
CCCn1c(SCC(=O)N2CCN(S(=O)(=O)c3ccc(Cl)cc3)CC2)n[nH]c1=O	5.012	rising, single point
O=C1c2ccccc2C(=O)N1c1ccc(S(=O)(=O)N2CCN(c3ccccc3)CC2)cc1	5.012	rising, single point
COc1cccc(NS(=O)(=O)c2c(C)cc(C)cc2C)c1	12.59	falling, single point
Cc1cccc(CNc2ccnc(-c3ccc(N(C)C)cc3)n2)c1	31.62	falling, single point
Cc1ccc(C)c(OCC(O)CN2C(C)CCCC2C)c1 (stereo not drawn)	7.943	falling, partial curve
Cc1ccc(S(=O)(=O)N2CCCC(c3nnc4n3-c3ccccc3SC4)C2)cc1 (stereo not drawn)	12.59	rising, single point